This data set concerns NCI60 Cell Line Panel. Put plainly: NCI60 one-dose screen, whole panel statistics. The note with it: 10^-5 M; for Growth Percent, Delta: delta over the NCI60 cell line panel; for Growth Percent, Range: range over the NCI60 cell line panel. The class given is cell-based, human. On the procedure: Anti-cancer activity screening of all compounds was performed by the NCI Developmental Therapeutics Program (DTP) through their NCI60 screening initiative. Assay details can be found at the website dtp.cancer.gov/discovery_development/nci-60/methodology.htm. Information from this website is reproduced here for convenience.
As of early 2007 all compounds submitted to the NCI 60 Cell screen are tested initially at a single high dose (10^-5 M) in the full NCI 60 cell panel. Only compounds which satisfy pre-determined threshold inhibition criteria in a minimum number of cell lines will progress to the full 5-dose assay. The threshold inhibition criteria for progression to the 5-dose screen was selected to efficiently capture compounds with anti-proliferative activity based on careful analysis of historical DTP screening data. The threshold criteria may be updated as additional data becomes available.
The One-dose data will be reported as a mean graph of the percent growth of treated cells and will be similar in appearance to mean graphs from the 5-dose assay. The number reported for the One-dose assay is growth relative to the no-drug control, and relative to the time zero number of cells. This allows detection of both growth inhibition (values between 0 and 100) and lethality (values less than 0). This is the same as for the 5-dose assay, described below. For example, a value of 100 means no growth inhibition. A value of 40 would mean 60% growth inhibition. A value of 0 means no net growth over the course of the experiment. A value of −40 would mean 40% lethality. A value of −100 means all cells are dead. Information from the One-dose mean graph is available for COMPARE analysis.
The human tumor cell lines of the cancer screening panel are grown in RPMI 1640 medium containing 5% fetal bovine serum and 2 mM L-glutamine. For a typical screening experiment, cells are inoculated into 96 well microtiter plates in 100 μL at plating densities ranging from 5,000 to 40,000 cells/well depending on the doubling time of individual cell lines. After cell inoculation, the microtiter plates are incubated at 37° C., 5% CO2, 95% air and 100% relative humidity for 24 h prior to addition of experimental drugs.
After 24 h, two plates of each cell line are fixed in situ with TCA, to represent a measurement of the cell population for each cell line at the time of drug addition (Tz). Experimental drugs are solubilized in dimethyl sulfoxide at 400-fold the desired final maximum test concentration and stored frozen prior to use. […]
Following drug addition, the plates are incubated for an additional 48 h at 37° C., 5% CO2, 95% air, and 100% relative humidity. […] Bound stain is subsequently solubilized with 10 mM trizma base, and the absorbance is read on an automated plate reader at a wavelength of 515 nm. […]

In the case of `CC(=O)N1c2ccccc2NC2=C(C(=O)N(Cc3ccccc3)C2(C)C)C1c1ccco1` (stereo not shown) [NUCC-608455], the “Growth Percent, Delta” value was found to be 79.72% and the “Growth Percent, Range” value is given as 139.16%.

On to `CC(=O)N1c2ccccc2NC2=C(C(=O)N(C)C2(C)C)C1c1ccccc1` (stereo not shown) [NUCC-60872], for which the “Growth Percent, Delta” value turned out to be 109.26% and the “Growth Percent, Range” value came out at 169.57%.

The values above are taken from patent publication US12252492B2, “Substituted fused pyrrolo-diazepinones and uses thereof” (Northwestern University, priority 2018, dated 2025).
